Laboratory results taken from PubChem BioAssay (NCATS).
The shares of active, inactive and inconclusive entries below differ from those in the screen. For some assays here: Potencies of inconclusive entries are doubtful fits and often do not repeat. Calls of active or inactive are those of the source. Calls follow the shape of the dose curve; as a rule, active = well fitted curve in the direction sought with a large enough effect; inconclusive = small, poorly fitted or top-dose-only effect, or another doubt; inactive = no such curve, though single readings can be large; an effect the other way counts as inactive or inconclusive.

Experiments:
[1] = Quantitative High-Throughput drug screen in 47 multiple myeloma cell lines against the NCATS MIPE library collection: MOLP8_DSMZ cell viability assay (AID 1918977); also: nearly all actives have a fitted effect of over 45% in size;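 as to viability (% of control): 100% = DMSO-only wells and 0% = media-only wells without cells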
How it was run: (§1)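 Inhibition of viability over 48 h was scored by ATP content (CellTiter-Glo) in 500-cell wells. Zero and full viability were defined by media-only and DMSO-only wells.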

[2] = Quantitative High-Throughput drug screen in 47 multiple myeloma cell lines against the NCATS MIPE library collection: NCIH929_DSMZ cell viability assay (AID 1918978); conditions: NCI-H929 myeloma viability, CellTiter-Glo ATP, 48 h; viability, % of control: at 45.8 µM (top of the series); also: nearly all actives have a fitted effect of over 35% in size
How it was run: as §1

[3] = Quantitative High-Throughput drug screen in 47 multiple myeloma cell lines against the NCATS MIPE library collection: MM1S_ATCC cell viability assay (AID 1918980); also: nearly all actives have a fitted effect of over 45% in size;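 as to viability (% of control): 100% = wells with DMSO only and 0% = wells with media only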
How it was run: as §1

[4] = Quantitative High-Throughput drug screen in 47 multiple myeloma cell lines against the NCATS MIPE library collection: MM1R_ATCC cell viability assay (AID 1918981); also: nearly all actives have a fitted effect of over 35% in size
How it was run: as §1

[5] = Quantitative High-Throughput drug screen in 47 multiple myeloma cell lines against the NCATS MIPE library collection: LP1_DSMZ cell viability assay (AID 1918982); also: nearly all actives have a fitted effect of over 35% in size
How it was run: as §1

[6] = Quantitative High-Throughput drug screen in 47 multiple myeloma cell lines against the NCATS MIPE library collection: KMS28PE_JCRB cell viability assay (AID 1918983); also: nearly all actives have a fitted effect of over 35% in size
How it was run: as §1

[7] = Quantitative High-Throughput drug screen in 47 multiple myeloma cell lines against the NCATS MIPE library collection: L363_DSMZ cell viability assay (AID 1918984); conditions: L363 myeloma viability, CellTiter-Glo ATP luminescence, 48 h; viability (% of control): at 45.8 µM; also: nearly all actives have a fitted effect of over 40% in size
How it was run: as §1

[8] = Quantitative High-Throughput drug screen in 47 multiple myeloma cell lines against the NCATS MIPE library collection: KMS34_JCRB cell viability assay (AID 1918985); conditions: KMS34 myeloma viability, CellTiter-Glo ATP luminescence, 48 h; viability, percent of control: at 45.8 µM; also: nearly all actives have a fitted effect of over 40% in size;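 as to viability, percent of control: 100% = DMSO-only wells and 0% = media-only wells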
How it was run: as §1

[9] = Quantitative High-Throughput drug screen in 47 multiple myeloma cell lines against the NCATS MIPE library collection: OCIMY7_PLB cell viability assay (AID 1918987); conditions: OCI-MY7 myeloma viability, CellTiter-Glo ATP, 48 h; viability (% of DMSO): at 45.8 µM unless noted; also: nearly all actives have a fitted effect of over 65% in size
How it was run: as §1

[10] = Quantitative High-Throughput drug screen in 47 multiple myeloma cell lines against the NCATS MIPE library collection: SKMM1_PLB cell viability assay (AID 1919863); conditions: SKMM1 myeloma viability, CellTiter-Glo ATP, 48 h; viability: stronger effect = lower value; also: nearly all actives have a fitted effect of over 35% in size
How it was run: as §1

[11] = Quantitative High-Throughput drug screen in 47 multiple myeloma cell lines against the NCATS MIPE library collection: U266_ATCC cell viability assay (AID 1919864); also: nearly all actives have a fitted effect of over 35% in size;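 as to viability (% of DMSO control): 0% = media-only wells without cells and 100% = DMSO-only wells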
How it was run: as §1

[12] = Quantitative High-Throughput drug screen in 47 multiple myeloma cell lines against the NCATS MIPE library collection: VP6_DJ cell viability assay (AID 1919867); conditions: ATP luminescence, 48 h; viability (% of DMSO): at 45.8 µM; also: nearly all actives have a fitted effect of over 40% in size;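 as to viability (% of DMSO): 100% = DMSO-only wells and 0% = wells with media alone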
How it was run: as §1

[13] = Quantitative High-Throughput drug screen in 47 multiple myeloma cell lines against the NCATS MIPE library collection: UTMC2_PLB cell viability assay (AID 1919868); conditions: CellTiter-Glo ATP luminescence, 48 h; viability (% of DMSO control): at 45.8 µM; also: nearly all actives have a fitted effect of over 55% in size;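 as to viability (% of DMSO control): 100% = DMSO-only wells and 0% = media-only wells without cells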
How it was run: as §1

[14] = Quantitative High-Throughput drug screen in 47 multiple myeloma cell lines against the NCATS MIPE library collection: PCM6_Riken cell viability assay (AID 1919870); conditions: CellTiter-Glo ATP, 48 h; viability (% of control): at 45.8 µM; also: nearly all actives have a fitted effect of over 30% in size
How it was run: as §1

[15] = Quantitative High-Throughput drug screen in 47 multiple myeloma cell lines against the NCATS MIPE library collection: OCIMY1_PLB cell viability assay (AID 1918979); also: nearly all actives have a fitted effect of over 35% in size;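 as to viability: 100% = DMSO-only wells and 0% = cell-free media-only wells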
How it was run: as §1

[16] = Quantitative High-Throughput drug screen in 47 multiple myeloma cell lines against the NCATS MIPE library collection: OPM1_PLB cell viability assay (AID 1918989); conditions: CellTiter-Glo, 48 h; viability (% of control): at 45.8 µM; also: nearly all actives have a fitted effect of over 40% in size;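 as to viability (% of control): 100% = DMSO-only wells and 0% = media-only wells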
How it was run: as §1

[17] = Quantitative High-Throughput drug screen in 47 multiple myeloma cell lines against the NCATS MIPE library collection: OCIMY5_PLB cell viability assay (AID 1918988); conditions: OCI-MY5 myeloma viability, ATP luminescence, 48 h; viability, % of control: at 45.8 µM; also: nearly all actives have a fitted effect of over 65% in size;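 as to viability, % of control: 100% = DMSO-treated wells and 0% = wells with media alone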
How it was run: as §1

[18] = Quantitative High-Throughput drug screen in 47 multiple myeloma cell lines against the NCATS MIPE library collection: XG6_PLB cell viability assay (AID 1919865); conditions: XG6 myeloma viability, CellTiter-Glo ATP luminescence, 48 h; viability (% of control): at 45.8 µM; also: nearly all actives have a fitted effect of over 40% in size
How it was run: as §1

[19] = Quantitative High-Throughput drug screen in 47 multiple myeloma cell lines against the NCATS MIPE library collection: PE2_PLB cell viability assay (AID 1919869); conditions: PE2_PLB myeloma cells viability, ATP luminescence, 48 h; viability (% of control): at 45.8 µM; also: nearly all actives have a fitted effect of over 35% in size
How it was run: as §1

[20] = Quantitative High-Throughput drug screen in 47 multiple myeloma cell lines against the NCATS MIPE library collection: XG1_PLB cell viability assay (AID 1919866); also: nearly all actives have a fitted effect of over 35% in size
How it was run: as §1
Potency is read from the fitted curve at half-maximal effect.

CC1(C)O[C@@H]2C[C@@H]3[C@H]4C[C@@H](F)C5=CC(=O)C=C[C@]5(C)[C@@]4(F)[C@@H](O)C[C@]3(C)[C@]2(C(=O)CO)O1
inconclusive: Potency [1] 0.105 µM [cytotoxic, full curve, poor fit] | Potency [5] 0.0023 µM [cytotoxic, full curve, poor fit] | Potency [6] 3.32 µM [cytotoxic, partial curve, poor fit] | Potency [9] 0.235 µM [cytotoxic, full curve, poor fit] | Potency [10] 8.3 nM [cytotoxic, full curve, poor fit] | Potency [11] 29.6 µM [cytotoxic, partial curve, poor fit] | Potency [13] 1.87 µM [cytotoxic, partial curve, poor fit] | Potency [14] 0.833 µM [cytotoxic, full curve, poor fit]
active: Potency [3] 11.8 nM | Potency [7] 37.2 nM
inactive: Potency [2] | Potency [4] | Potency [8] | Potency [12]

N=C(N)c1ccc(OCCCCCOc2ccc(C(=N)N)cc2)cc1
active: Potency [1] 5.26 µM | Potency [16] 11.8 µM
inconclusive: Potency [2] 11.8 µM [cytotoxic, partial curve] | Potency [15] 23.5 µM [cytotoxic, partial curve] | Potency [5] 9.35 µM [cytotoxic, partial curve] | Potency [13] 0.0469 µM [cytotoxic, full curve, poor fit]
inactive: Potency [7]

Cc1c(C)c2c(c(C)c1O)CCC(C)(COc1ccc(CC3SC(=O)NC3=O)cc1)O2 (stereo not drawn)
inconclusive: Potency [2] 26.4 µM [cytotoxic, single point] | Potency [3] 1.9 nM [rising, full curve, poor fit] | Potency [8] 0.001 µM [cytotoxic] | Potency [9] 1.66 µM [rising, full curve, poor fit] | Potency [17] 0.0053 µM [cytotoxic, full curve, poor fit] | Potency [18] 26.4 µM [cytotoxic, single point] | viability (% of DMSO control) [13] 113% [cytotoxic]
inactive: Potency [1] | Potency [7] | Potency [16] | viability [10] 114% | Potency [12]

CCCCCCCN(CC)CCCC(O)c1ccc(NS(C)(=O)=O)cc1 (stereo not drawn)
inactive: Potency [11]
inconclusive: Potency [1] 1.87 µM [rising, full curve, poor fit] | Potency [2] 26.4 µM [cytotoxic, single point] | Potency [15] 9.35 µM [rising, single point] | Potency [3] 20900 nM [cytotoxic, partial curve, poor fit] | Potency [5] 16.6 µM [cytotoxic, partial curve] | Potency [6] 0.0833 µM [rising, full curve, poor fit] | Potency [7] 26400 nM [cytotoxic, single point] | Potency [9] 20.9 µM [cytotoxic, partial curve, poor fit] | viability, % of control [17] 126% [cytotoxic] | Potency [16] 23.5 µM [cytotoxic, partial curve, poor fit] | Potency [10] 1180 nM [rising, partial curve, poor fit] | Potency [18] 18.7 µM [cytotoxic, partial curve] | Potency [12] 18.7 µM [cytotoxic, partial curve] | Potency [19] 37.2 µM [cytotoxic, single point] | Potency [14] 14.8 µM [cytotoxic, partial curve, poor fit]

c1ccc(CNc2nc(NCc3ccccc3)c3ccccc3n2)cc1
active: Potency [1] 18.7 µM | Potency [2] 8.33 µM | Potency [7] 5260 nM | Potency [9] 4.69 µM | Potency [10] 29600 nM | Potency [12] 8.33 µM | Potency [13] 10.5 µM
inconclusive: Potency [15] 33.2 µM [cytotoxic, single point]

NC(N)=NC(N)=NCCc1ccccc1
inconclusive: Potency [1] 4.69 µM [cytotoxic, partial curve, poor fit] | Potency [2] 6.62 µM [cytotoxic, partial curve, poor fit] | Potency [5] 3.72 µM [cytotoxic, full curve] | Potency [9] 23.5 µM [cytotoxic, partial curve, poor fit] | Potency [10] 1480 nM [cytotoxic, full curve, poor fit] | Potency [11] 20.9 µM [cytotoxic, partial curve] | Potency [18] 16.6 µM [cytotoxic, partial curve] | Potency [13] 37.2 µM [cytotoxic, partial curve, poor fit] | Potency [14] 5.26 µM [cytotoxic, full curve]
active: Potency [3] 2960 nM

Cc1nc2cnc3ccc(C#Cc4cccnc4)cc3c2n1-c1ccc(C(C)(C)C#N)cc1
active: Potency [2] 0.0264 µM | Potency [4] 166 nM | Potency [5] 0.0833 µM | Potency [20] 10.5 nM | Potency [13] 0.0209 µM | Potency [19] 0.0132 µM
inconclusive: Potency [1] 0.132 µM [cytotoxic, full curve] | Potency [6] 0.526 µM [cytotoxic, full curve, poor fit] | Potency [7] 166 nM [rising, full curve, poor fit] | Potency [11] 0.0743 µM [cytotoxic, full curve]

C[C@@H](c1ncncc1F)[C@](O)(Cn1cncn1)c1ccc(F)cc1F
inconclusive: Potency [2] 1.66 µM [cytotoxic, partial curve, poor fit] | Potency [7] 264 nM [cytotoxic, full curve, poor fit] | Potency [9] 11.8 µM [cytotoxic, partial curve, poor fit] | Potency [16] 0.001 µM [cytotoxic] | Potency [10] 4.7 nM [cytotoxic, full curve, poor fit] | Potency [11] 0.469 µM [cytotoxic, full curve, poor fit] | Potency [20] 10500 nM [cytotoxic, single point] | Potency [12] 5.26 µM [cytotoxic, full curve, poor fit] | Potency [13] 0.0047 µM [cytotoxic, full curve, poor fit]
inactive: Potency [1] | Potency [3] | Potency [4] | Potency [17]

Clc1cccc(-c2nnnn2Cc2cccnc2)c1Cl
inconclusive: Potency [2] 18.7 µM [cytotoxic, partial curve] | Potency [3] 2.6 nM [rising, full curve] | Potency [7] 1.2 nM [cytotoxic, full curve, poor fit] | Potency [10] 4.2 nM [rising, full curve, poor fit] | Potency [11] 0.001 µM | Potency [12] 14.8 µM [cytotoxic, partial curve, poor fit] | Potency [19] 20.9 µM [cytotoxic, single point] | Potency [14] 23.5 µM [cytotoxic, single point]
inactive: Potency [1] | Potency [15] | Potency [4] | Potency [5] | Potency [17] | Potency [13]

CCOc1ccccc1N=Nc1c(C)[nH]n(-c2nc(-c3ccccc3)cs2)c1=O
active: Potency [2] 0.264 µM | Potency [4] 3320 nM | Potency [11] 8.33 µM
inconclusive: Potency [1] 1.87 µM [cytotoxic, full curve, poor fit] | Potency [5] 37.2 µM [rising, single point] | Potency [6] 14.8 µM [cytotoxic, partial curve, poor fit] | Potency [7] 41.8 nM [cytotoxic, full curve, poor fit] | Potency [9] 2.35 µM [cytotoxic, full curve, poor fit] | Potency [18] 0.833 µM [cytotoxic, full curve, poor fit] | Potency [12] 1.18 µM [cytotoxic, full curve, poor fit] | Potency [14] 6.62 µM [cytotoxic, partial curve]
inactive: Potency [8] | Potency [16]

CS(=O)(=O)c1ccc([C@@H](O)[C@@H](CO)NC(=O)C(Cl)Cl)cc1
inactive: Potency [15] | Potency [6] | Potency [11]
active: Potency [13] 13.2 µM
inconclusive: Potency [1] 1.48 µM [cytotoxic, partial curve, poor fit] | Potency [2] 26.4 µM [cytotoxic, single point] | Potency [5] 5.26 µM [cytotoxic, full curve, poor fit] | Potency [7] 2960 nM [cytotoxic, partial curve, poor fit] | Potency [9] 37.2 µM [cytotoxic, single point] | Potency [17] 37.2 µM [cytotoxic, single point] | Potency [16] 0.059 µM [cytotoxic, full curve, poor fit] | Potency [10] 118 nM [cytotoxic, full curve, poor fit] | Potency [19] 1.87 µM [cytotoxic, partial curve, poor fit]

C#Cc1cccc(Nc2ncnc3cc(OCCOC)c(OCCO)cc23)c1
inconclusive: Potency [1] 20.9 µM [cytotoxic, partial curve, poor fit] | Potency [2] 18.7 µM [cytotoxic, partial curve] | Potency [15] 33.2 µM [cytotoxic, single point] | Potency [5] 37.2 µM [cytotoxic, single point] | Potency [8] 33.2 µM [cytotoxic, single point] | Potency [10] 11800 nM [cytotoxic, partial curve, poor fit] | Potency [18] 0.132 µM [cytotoxic, full curve, poor fit] | Potency [20] 469 nM [cytotoxic, full curve, poor fit] | Potency [12] 1.32 µM [cytotoxic, full curve, poor fit] | Potency [13] 1.66 µM [cytotoxic, partial curve, poor fit] | Potency [14] 3.32 µM [cytotoxic, full curve]
active: Potency [17] 3.32 µM | Potency [19] 1.05 µM
